In article PMC10539794, “Structural polymorphism and substrate promiscuity of a ribosome-associated molecular chaperone” (Magnetic resonance, 2021):
No constants are given. Whether binding was seen depends on the method and setting. Binding can be weak; no strength is given.

Biological target: RBD-truncated TF construct, residues 113-432 (PPI + SBD) (E. coli)
Assay: NMR paramagnetic relaxation enhancement (PRE); MTSL-labeled peptide added to isotope-labeled PPI + SBD or full-length TF (the latter at a concentration where it is predominantly dimeric); 15N-1H TROSY and methyl SOFAST-HMQC, oxidized against reduced (1 mM ascorbic acid), I^ox/I^red; 20 mM sodium phosphate pH 7.4, 100 mM NaCl; both purified

| Binder | binding |
| --- | --- |
| YICLRPVRYYQGT (MTSL spin label on the endogenous cysteine) [MTSL-labeled IcdH2 peptide (ICDH 125-137)] | binds |
| KFLREEMGVKKIRFPEHC (MTSL spin label on the endogenous cysteine) [MTSL-labeled IcdH3 peptide (ICDH 177-194)] | binds |
